Reference: the M2OR odorant receptor database
Numbering of substitutions follows the chain as printed. Only a part is listed here, and it is no random draw. The calls were merged from several studies; some rest on single wells. The list shows a part of the results. This is one part of the list.

Chains of the proteins cited; added tags and fusions are not shown. A line that says so, or that is headed by a name, gives the form on record, which may keep a tag or linker.
OR2W1, as listed by the source: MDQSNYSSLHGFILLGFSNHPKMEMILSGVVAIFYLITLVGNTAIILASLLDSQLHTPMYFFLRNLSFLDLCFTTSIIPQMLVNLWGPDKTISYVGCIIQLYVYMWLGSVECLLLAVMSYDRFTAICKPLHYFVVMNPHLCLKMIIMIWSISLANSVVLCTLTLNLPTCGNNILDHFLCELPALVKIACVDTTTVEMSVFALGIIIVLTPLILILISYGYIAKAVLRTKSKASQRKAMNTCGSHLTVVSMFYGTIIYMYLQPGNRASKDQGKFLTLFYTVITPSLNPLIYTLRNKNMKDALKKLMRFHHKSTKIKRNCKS

Legend:
Details in all cases: stereoisomer not certain
[1] = system: T1, OR2T5
T1 sequence (whole entry): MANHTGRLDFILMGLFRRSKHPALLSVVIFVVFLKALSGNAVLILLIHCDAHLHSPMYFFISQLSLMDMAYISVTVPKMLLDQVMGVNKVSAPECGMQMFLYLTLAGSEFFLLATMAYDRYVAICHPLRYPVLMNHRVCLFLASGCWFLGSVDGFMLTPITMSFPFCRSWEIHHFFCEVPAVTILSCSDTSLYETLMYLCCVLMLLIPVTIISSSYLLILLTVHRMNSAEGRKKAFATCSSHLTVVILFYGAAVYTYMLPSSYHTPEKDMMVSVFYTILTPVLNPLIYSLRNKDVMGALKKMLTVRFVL
Summary of the method: (§1)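 Each entry records the cell line, G-protein, co-transfected protein and tags used. Methods varied with the source, often transient luciferase assays in mammalian cell lines. A receptor–molecule pair is called responsive (active) if the original authors judged its signal statistically different from baseline and non-responsive (inactive) otherwise.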

[2] = system: T2, OR2T6
T2 sequence (whole entry): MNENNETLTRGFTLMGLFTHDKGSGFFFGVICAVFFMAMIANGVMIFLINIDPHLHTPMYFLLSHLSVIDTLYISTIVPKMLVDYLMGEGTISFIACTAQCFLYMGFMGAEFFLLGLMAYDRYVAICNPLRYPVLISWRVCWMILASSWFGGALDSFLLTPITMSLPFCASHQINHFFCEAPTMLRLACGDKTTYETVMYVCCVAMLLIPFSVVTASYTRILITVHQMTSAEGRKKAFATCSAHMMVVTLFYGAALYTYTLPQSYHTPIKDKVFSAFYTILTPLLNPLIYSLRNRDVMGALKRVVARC
Summary of the method: as §1

[3] = system: T3, OR2T8
T3 sequence (whole entry): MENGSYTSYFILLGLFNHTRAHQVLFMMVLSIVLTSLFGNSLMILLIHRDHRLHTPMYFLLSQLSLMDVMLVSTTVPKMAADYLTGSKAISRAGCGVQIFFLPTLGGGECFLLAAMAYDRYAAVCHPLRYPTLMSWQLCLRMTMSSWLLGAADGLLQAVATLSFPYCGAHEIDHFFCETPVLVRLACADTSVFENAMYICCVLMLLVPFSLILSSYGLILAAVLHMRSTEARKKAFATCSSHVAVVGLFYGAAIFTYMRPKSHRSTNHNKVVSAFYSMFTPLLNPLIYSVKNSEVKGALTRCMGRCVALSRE
Summary of the method: as §1

[4] = system: T4, OR2V1
T4 sequence (whole entry): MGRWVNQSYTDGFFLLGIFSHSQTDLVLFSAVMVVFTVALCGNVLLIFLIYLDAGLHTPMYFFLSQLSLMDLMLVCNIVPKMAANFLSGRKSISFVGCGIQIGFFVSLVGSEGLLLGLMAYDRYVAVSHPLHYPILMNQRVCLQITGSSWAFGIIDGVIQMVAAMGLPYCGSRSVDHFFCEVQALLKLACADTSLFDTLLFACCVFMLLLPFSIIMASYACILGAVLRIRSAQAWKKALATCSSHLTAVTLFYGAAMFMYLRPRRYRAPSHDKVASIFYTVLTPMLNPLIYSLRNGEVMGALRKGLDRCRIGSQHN
Summary of the method: as §1

[5] = system: T5, OR2V2
T5 sequence (whole entry): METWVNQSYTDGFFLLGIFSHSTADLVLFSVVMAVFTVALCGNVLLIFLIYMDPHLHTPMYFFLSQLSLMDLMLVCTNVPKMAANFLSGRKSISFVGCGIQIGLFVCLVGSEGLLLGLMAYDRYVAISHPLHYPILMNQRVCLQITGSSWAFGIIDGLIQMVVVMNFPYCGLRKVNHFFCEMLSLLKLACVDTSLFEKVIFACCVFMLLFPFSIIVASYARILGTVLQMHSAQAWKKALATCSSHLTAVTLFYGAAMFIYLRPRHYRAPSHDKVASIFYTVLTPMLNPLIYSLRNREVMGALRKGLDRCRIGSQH
Summary of the method: as §1

[6] = molecular target: T6, OR2W1 (Homo sapiens) (UniProt Q9Y3N9)
T6 sequence (whole entry): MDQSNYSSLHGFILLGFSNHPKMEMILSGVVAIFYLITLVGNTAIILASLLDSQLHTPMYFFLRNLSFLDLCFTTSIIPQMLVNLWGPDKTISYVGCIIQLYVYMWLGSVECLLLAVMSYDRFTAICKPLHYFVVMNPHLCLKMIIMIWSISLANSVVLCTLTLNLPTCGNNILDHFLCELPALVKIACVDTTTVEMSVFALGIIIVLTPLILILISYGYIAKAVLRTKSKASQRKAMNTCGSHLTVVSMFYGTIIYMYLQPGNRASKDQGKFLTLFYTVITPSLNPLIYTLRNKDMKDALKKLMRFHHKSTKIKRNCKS
Summary of the method: as §1

[7] = system: T7, OR2W1
T7 sequence (whole entry): T6 sequence (whole entry) with D296N
Summary of the method: as §1

[8] = system: T8, OR2W3
T8 sequence (whole entry): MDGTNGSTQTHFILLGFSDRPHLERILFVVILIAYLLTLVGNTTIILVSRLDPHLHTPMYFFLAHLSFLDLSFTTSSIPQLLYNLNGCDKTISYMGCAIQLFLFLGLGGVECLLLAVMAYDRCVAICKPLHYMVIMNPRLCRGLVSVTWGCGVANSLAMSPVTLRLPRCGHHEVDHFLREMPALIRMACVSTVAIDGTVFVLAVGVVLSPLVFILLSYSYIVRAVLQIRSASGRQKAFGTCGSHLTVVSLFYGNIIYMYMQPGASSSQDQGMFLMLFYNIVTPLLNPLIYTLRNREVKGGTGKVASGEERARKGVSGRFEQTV
Summary of the method: as §1

[9] = molecular target: T9, OR2W5P (Homo sapiens) (UniProt A6NFC9)
T9 sequence (whole entry): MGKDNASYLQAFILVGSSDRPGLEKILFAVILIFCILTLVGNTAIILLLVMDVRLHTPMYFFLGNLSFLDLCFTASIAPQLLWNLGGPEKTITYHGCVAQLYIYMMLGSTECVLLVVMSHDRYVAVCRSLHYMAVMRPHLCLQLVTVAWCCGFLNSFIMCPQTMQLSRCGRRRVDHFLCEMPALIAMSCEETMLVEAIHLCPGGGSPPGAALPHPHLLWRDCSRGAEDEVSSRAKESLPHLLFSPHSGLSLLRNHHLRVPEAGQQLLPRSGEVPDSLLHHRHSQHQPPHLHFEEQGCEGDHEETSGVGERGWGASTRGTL
Summary of the method: as §1

[10] = system: T10, OR2Y1
T10 sequence (whole entry): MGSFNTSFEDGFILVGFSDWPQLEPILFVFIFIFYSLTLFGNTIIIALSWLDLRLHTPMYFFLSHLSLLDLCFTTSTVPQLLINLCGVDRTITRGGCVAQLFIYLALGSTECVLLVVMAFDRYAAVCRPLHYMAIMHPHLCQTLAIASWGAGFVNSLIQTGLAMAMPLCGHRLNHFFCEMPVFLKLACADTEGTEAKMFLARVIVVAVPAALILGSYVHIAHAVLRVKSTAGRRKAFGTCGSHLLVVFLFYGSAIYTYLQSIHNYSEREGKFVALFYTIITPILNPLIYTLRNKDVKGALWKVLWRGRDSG
Summary of the method: as §1

[11] = molecular target: T11, OR2Z1 (Homo sapiens) (UniProt Q8NG97)
T11 sequence (whole entry): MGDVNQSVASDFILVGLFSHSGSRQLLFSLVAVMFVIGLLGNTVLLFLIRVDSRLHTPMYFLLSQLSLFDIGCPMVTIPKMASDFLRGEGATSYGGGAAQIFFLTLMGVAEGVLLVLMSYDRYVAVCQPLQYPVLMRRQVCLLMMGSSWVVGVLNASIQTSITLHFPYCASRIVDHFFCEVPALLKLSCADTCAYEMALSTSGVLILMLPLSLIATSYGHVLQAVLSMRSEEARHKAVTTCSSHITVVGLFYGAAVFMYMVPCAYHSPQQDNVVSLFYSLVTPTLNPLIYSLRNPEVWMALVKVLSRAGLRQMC
Summary of the method: as §1

[12] = molecular target: T12, OR3A1 (Homo sapiens) (UniProt P47881)
T12 sequence (whole entry): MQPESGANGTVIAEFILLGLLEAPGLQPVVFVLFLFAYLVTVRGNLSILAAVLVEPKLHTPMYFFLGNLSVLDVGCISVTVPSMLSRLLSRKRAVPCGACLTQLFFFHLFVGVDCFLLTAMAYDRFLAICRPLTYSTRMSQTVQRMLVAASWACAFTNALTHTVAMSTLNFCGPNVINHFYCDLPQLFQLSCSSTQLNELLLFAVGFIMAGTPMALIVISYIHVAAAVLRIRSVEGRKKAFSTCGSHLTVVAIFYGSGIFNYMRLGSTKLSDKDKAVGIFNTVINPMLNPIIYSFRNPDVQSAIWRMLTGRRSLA
Summary of the method: as §1

[13] = molecular target: T13, OR3A2 (Homo sapiens) (UniProt P47893)
T13 sequence (whole entry): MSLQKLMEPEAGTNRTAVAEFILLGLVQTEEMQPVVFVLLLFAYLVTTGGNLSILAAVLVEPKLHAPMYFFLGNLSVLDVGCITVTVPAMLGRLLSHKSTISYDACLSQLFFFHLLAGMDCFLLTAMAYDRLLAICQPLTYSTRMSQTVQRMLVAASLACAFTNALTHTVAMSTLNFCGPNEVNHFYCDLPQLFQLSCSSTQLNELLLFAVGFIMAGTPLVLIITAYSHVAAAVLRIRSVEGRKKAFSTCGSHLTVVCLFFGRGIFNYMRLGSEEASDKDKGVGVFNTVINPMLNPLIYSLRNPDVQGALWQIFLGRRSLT
Summary of the method: as §1

[14] = system: T14, OR3A3
T14 sequence (whole entry): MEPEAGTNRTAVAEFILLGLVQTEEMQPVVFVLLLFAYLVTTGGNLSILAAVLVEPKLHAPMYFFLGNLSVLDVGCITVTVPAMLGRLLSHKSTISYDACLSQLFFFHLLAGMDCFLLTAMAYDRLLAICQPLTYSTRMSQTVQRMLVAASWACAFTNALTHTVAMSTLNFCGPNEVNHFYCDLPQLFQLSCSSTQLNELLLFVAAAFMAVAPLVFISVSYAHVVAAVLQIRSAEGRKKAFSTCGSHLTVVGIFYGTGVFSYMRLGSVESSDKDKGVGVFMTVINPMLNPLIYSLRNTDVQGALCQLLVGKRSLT
Summary of the method: as §1

[15] = system: T15, OR3A4
T15 sequence (whole entry): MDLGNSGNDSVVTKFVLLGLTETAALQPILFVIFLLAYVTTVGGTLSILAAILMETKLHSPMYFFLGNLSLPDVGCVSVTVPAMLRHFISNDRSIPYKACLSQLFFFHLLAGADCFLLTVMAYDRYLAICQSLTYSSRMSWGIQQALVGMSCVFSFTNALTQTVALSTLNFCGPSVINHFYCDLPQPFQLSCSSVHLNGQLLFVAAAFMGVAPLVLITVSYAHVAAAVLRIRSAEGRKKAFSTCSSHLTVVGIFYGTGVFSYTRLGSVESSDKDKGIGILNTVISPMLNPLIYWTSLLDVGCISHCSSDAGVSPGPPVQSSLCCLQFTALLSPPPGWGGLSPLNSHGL
Summary of the method: as §1

[16] = molecular target: T16, OR4A16 (Homo sapiens) (UniProt Q8NH70)
T16 sequence (whole entry): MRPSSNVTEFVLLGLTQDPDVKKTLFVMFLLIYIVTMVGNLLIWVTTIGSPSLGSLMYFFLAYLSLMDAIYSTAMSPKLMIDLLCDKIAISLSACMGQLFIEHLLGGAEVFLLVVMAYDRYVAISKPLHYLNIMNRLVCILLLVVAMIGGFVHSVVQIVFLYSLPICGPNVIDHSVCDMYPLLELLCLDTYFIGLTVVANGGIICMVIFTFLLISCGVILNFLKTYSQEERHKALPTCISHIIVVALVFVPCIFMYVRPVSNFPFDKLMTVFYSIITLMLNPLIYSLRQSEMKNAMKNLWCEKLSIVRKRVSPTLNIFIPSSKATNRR
Summary of the method: as §1

[17] = molecular target: T17, OR4A4P (Homo sapiens) (UniProt Q8NGN8)
T17 sequence (whole entry): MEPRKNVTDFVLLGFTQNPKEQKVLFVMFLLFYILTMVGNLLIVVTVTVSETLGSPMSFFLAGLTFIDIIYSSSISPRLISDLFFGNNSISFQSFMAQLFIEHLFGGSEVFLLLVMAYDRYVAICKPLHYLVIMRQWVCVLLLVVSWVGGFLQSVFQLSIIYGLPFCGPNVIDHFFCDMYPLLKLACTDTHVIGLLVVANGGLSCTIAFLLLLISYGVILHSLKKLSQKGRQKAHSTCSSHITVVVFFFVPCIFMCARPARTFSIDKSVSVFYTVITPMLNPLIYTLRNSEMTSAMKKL
Summary of the method: as §1

[18] = molecular target: T18, OR4A5 (Homo sapiens) (UniProt Q8NH83)
T18 sequence (whole entry): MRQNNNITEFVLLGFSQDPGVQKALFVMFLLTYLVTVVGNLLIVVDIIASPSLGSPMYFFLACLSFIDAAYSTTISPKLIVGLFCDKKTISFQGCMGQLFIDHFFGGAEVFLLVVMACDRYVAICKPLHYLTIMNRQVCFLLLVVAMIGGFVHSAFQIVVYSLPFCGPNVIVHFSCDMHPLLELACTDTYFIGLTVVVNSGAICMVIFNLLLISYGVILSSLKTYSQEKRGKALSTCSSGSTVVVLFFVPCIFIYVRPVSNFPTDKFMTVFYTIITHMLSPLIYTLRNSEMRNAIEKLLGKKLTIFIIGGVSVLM
Summary of the method: as §1

[19] = system: T19, OR4A5
T19 sequence (whole entry): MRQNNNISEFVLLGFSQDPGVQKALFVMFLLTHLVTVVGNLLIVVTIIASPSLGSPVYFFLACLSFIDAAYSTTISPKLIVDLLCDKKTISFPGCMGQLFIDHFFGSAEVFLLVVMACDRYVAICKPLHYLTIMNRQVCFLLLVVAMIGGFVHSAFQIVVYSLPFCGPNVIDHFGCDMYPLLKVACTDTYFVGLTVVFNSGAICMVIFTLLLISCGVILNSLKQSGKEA
Summary of the method: as §1

Measured: odorant receptor agonist call

CS
inactive: all assays above
